Test results from the supplement of paper PMC10849652.
The list shows a part of the results.

Amino acid sequences for entries named in this document (tags omitted). A change or cut given only in a name is not applied to a line headed by its entry.
UniProt P10398: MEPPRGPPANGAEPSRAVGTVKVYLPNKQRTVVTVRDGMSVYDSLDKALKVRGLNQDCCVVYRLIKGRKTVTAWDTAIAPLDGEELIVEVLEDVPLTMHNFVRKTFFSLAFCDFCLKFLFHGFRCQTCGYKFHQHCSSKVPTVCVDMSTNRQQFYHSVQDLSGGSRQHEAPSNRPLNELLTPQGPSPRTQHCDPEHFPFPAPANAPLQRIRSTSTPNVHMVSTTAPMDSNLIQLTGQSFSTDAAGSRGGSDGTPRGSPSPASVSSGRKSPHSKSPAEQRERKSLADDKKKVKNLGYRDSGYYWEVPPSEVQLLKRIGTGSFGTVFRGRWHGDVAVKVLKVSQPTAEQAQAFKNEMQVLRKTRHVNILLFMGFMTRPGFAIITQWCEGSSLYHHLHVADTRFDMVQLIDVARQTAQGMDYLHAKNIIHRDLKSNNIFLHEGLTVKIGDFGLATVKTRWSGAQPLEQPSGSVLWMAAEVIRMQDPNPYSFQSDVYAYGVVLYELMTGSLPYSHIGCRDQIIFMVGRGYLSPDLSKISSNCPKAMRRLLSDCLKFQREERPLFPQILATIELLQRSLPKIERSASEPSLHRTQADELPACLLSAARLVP
UniProt Q9Y6D6: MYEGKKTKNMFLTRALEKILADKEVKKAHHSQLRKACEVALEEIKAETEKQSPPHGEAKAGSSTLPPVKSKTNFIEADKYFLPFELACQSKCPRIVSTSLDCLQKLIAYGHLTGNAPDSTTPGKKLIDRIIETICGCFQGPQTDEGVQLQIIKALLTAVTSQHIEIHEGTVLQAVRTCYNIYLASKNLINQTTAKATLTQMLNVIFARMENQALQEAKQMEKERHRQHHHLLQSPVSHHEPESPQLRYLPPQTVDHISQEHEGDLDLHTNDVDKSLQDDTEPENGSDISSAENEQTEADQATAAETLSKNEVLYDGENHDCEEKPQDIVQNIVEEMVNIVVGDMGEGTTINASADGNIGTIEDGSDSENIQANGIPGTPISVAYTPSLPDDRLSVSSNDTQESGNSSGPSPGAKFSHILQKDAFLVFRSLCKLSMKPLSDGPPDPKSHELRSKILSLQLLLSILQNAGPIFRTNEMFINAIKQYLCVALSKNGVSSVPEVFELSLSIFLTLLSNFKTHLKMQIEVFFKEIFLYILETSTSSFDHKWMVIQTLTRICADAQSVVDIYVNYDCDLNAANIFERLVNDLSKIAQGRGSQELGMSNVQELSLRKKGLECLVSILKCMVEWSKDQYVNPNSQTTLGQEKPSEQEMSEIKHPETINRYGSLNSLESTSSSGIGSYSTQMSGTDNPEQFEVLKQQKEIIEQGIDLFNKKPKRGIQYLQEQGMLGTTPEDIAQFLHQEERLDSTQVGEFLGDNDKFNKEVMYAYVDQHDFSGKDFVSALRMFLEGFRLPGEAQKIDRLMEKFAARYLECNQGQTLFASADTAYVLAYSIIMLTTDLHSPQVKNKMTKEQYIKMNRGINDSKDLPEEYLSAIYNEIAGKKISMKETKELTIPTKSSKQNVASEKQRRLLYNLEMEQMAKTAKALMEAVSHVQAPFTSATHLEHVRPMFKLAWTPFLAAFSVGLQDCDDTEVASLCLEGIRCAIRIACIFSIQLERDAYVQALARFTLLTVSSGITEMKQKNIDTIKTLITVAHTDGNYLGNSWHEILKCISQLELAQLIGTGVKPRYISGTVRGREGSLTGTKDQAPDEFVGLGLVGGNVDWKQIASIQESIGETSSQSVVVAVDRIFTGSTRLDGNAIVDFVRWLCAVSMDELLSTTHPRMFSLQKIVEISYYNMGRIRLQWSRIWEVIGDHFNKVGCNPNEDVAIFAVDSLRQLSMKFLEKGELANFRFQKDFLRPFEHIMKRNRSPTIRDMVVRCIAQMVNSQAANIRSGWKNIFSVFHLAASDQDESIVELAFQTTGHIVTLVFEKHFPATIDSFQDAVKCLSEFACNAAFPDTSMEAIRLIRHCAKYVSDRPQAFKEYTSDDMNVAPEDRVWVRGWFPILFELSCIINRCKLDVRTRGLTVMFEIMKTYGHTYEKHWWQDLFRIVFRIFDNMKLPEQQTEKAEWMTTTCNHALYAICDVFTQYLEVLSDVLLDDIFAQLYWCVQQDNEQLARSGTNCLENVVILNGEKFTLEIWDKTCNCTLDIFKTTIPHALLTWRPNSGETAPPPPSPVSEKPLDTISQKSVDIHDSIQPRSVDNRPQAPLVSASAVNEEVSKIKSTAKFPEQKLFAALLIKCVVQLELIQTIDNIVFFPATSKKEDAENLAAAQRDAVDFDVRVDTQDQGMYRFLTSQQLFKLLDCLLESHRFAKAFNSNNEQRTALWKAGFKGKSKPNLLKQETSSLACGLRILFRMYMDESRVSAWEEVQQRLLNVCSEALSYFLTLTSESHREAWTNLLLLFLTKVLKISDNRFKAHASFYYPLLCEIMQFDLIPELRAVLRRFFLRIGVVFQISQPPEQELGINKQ
UniProt P02749: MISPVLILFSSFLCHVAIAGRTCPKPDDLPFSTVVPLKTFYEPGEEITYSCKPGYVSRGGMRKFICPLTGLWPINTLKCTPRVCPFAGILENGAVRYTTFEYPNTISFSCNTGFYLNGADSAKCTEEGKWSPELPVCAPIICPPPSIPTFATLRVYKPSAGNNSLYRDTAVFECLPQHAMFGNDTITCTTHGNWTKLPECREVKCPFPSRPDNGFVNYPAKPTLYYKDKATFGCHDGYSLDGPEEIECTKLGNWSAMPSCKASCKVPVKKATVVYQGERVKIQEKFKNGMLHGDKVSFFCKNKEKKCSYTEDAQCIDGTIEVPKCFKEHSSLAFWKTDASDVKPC
UniProt Q96BI3, whole entry, looked up: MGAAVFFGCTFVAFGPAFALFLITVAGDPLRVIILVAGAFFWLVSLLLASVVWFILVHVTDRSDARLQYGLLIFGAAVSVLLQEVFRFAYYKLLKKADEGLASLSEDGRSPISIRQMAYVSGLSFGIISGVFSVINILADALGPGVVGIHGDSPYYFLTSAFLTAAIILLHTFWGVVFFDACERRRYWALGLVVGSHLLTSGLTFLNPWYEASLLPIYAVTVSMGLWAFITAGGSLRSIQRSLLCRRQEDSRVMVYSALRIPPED
UniProt P15144: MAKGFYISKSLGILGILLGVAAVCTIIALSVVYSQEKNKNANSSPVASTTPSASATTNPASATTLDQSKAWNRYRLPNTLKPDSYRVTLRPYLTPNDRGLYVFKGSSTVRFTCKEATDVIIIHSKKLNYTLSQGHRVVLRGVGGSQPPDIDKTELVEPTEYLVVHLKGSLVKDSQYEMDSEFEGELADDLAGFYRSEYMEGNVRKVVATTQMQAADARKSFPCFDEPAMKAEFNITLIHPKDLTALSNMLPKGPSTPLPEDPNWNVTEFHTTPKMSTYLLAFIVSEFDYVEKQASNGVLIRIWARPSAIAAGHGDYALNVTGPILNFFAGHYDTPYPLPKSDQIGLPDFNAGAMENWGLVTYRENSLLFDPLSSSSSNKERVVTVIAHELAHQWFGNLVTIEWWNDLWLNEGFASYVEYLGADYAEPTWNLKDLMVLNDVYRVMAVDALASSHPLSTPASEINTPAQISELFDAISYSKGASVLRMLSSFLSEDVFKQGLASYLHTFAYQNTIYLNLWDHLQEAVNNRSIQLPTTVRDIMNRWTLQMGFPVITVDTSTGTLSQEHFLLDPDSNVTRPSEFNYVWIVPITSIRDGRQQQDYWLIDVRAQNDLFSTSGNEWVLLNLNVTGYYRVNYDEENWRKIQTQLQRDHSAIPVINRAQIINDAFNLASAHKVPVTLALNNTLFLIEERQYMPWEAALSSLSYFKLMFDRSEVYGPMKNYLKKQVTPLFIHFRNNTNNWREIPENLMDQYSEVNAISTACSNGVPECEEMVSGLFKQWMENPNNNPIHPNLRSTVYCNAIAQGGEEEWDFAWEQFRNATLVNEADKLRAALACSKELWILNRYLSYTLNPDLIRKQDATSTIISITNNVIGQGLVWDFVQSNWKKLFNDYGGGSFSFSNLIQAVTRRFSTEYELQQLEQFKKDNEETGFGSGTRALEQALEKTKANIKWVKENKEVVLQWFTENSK
UniProt Q9Y6B7: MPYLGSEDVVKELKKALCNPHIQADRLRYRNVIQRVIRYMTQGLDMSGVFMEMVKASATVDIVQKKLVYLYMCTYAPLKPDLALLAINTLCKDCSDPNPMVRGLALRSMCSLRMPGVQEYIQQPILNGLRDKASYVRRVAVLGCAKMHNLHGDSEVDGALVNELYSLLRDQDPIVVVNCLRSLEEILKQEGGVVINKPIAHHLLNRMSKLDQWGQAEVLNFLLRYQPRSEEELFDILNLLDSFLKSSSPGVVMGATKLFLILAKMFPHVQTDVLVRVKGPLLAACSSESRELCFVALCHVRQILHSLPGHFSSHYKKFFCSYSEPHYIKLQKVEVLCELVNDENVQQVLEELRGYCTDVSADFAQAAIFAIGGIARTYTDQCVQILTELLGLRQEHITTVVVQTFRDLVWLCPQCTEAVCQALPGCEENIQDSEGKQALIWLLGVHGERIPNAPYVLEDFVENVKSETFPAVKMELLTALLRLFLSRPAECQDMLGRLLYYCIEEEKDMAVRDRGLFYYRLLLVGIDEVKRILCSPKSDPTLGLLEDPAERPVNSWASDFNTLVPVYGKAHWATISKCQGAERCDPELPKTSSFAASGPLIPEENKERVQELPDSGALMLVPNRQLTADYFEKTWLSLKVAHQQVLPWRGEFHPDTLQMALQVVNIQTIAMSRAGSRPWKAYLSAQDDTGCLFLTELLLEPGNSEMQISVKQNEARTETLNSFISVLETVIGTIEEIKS
UniProt P18085: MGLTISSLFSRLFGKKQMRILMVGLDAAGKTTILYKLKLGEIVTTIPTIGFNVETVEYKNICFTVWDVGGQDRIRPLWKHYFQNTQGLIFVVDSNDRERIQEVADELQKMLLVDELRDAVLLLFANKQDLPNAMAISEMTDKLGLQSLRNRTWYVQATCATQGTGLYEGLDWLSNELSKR
UniProt Q9UKG1: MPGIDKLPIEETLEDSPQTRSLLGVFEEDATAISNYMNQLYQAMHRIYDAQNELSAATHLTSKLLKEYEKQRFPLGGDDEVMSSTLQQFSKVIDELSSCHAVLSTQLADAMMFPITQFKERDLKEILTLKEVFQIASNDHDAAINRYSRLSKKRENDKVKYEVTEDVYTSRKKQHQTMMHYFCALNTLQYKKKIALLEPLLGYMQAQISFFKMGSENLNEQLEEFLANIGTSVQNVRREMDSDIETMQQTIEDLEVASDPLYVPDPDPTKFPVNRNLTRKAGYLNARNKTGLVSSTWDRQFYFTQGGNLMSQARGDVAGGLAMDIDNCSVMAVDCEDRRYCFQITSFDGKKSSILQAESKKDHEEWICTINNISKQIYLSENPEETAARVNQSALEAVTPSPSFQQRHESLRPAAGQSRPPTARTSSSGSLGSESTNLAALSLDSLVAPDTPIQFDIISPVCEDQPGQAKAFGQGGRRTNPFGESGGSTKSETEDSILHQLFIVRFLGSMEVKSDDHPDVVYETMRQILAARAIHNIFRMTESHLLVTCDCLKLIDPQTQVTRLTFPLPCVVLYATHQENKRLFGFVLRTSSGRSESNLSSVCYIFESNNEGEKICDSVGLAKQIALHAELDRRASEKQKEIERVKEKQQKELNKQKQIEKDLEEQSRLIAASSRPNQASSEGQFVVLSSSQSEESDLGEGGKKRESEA
UniProt Q86W74: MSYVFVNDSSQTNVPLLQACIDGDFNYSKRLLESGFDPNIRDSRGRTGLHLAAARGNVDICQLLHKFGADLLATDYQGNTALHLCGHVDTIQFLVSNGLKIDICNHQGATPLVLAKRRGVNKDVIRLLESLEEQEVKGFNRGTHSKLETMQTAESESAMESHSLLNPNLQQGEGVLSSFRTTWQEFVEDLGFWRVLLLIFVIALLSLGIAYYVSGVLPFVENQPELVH
UniProt Q8N6T3: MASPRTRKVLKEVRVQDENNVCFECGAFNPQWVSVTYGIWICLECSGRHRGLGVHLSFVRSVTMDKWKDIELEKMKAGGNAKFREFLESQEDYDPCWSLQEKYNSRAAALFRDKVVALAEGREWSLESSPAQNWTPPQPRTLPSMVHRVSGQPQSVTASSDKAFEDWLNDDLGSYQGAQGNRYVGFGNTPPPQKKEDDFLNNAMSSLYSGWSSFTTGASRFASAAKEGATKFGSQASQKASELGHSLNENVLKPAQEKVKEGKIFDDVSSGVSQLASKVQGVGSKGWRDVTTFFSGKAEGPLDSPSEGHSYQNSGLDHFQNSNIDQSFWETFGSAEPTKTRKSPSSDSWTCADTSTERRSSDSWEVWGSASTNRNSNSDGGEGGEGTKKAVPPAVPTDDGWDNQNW
UniProt Q9BTT0: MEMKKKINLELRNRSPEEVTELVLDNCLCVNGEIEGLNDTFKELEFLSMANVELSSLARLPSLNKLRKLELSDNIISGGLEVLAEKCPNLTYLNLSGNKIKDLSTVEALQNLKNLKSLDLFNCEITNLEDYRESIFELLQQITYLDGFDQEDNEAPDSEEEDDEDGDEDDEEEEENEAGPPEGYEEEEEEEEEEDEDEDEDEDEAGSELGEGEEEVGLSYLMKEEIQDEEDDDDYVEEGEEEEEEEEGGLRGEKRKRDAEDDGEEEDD

Assays:
Experiment in all cases: log2 fold change, soluble protein after heating vs DMSO (PISA); higher = thermal stabilisation; K562 cells, 10 uM, 30 min; active = over 0.2 and 3.5 SD of the protein, either way, in both replicates (recomputed)
[1] = compound: CS(=O)(=O)c1ccc(-c2cnc(N)c(C(=O)Nc3ccccc3)n2)cc1
Outline: (§1)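 Soluble protein was defined as the supernatant after 21,000xg for 90 min. It came from K562 cells at 2×10^6 cells/mL given 10 μM compound for 30 min, heated in aliquots for 3 min across 48°C-58°C, pooled, and extracted in PBS with 0.5% NP-40 at 4°C, and was quantified by TMTpro 16plex LC-MS/MS with equalised channel sums. Thermal stability against control samples, from duplicates, is reported as log2 fold change.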

crizotinib = compound: C[C@@H](Oc1cc(-c2cnn(C3CCNCC3)c2)cnc1N)c1c(Cl)ccc(F)c1Cl [crizotinib]
Outline: as §1

[2] = compound: C[C@@H]1COCCN1C2=NC(=NC(=C2)C3(CC3)S(=O)(=O)C)C4=C5C=CNC5=CC=C4
Outline: as §1

duvelisib = compound: C[C@H](Nc1ncnc2nc[nH]c12)c1cc2cccc(Cl)c2c(=O)n1-c1ccccc1 [duvelisib]
Outline: as §1

tozasertib = compound: Cc1cc(Nc2cc(N3CCN(C)CC3)nc(Sc3ccc(NC(=O)C4CC4)cc3)n2)n[nH]1 [tozasertib]
Outline: as §1

[3] = compound: Cc1cc(SCc2sc(-c3ccc(C(F)(F)F)cc3)nc2C)ccc1OCC(=O)O
Outline: as §1

doramapimod = compound: Cc1ccc(-n2nc(C(C)(C)C)cc2NC(=O)Nc2ccc(OCCN3CCOCC3)c3ccccc23)cc1 [doramapimod]
Outline: as §1

ispinesib = compound: Cc1ccc(C(=O)N(CCCN)[C@@H](c2nc3cc(Cl)ccc3c(=O)n2Cc2ccccc2)C(C)C)cc1 [ispinesib]
Outline: as §1

bafetinib = compound: Cc1ccc(NC(=O)c2ccc(CN3CC[C@H](N(C)C)C3)c(C(F)(F)F)c2)cc1Nc1nccc(-c2cncnc2)n1 [bafetinib]
Outline: as §1

dasatinib = compound: Cc1nc(Nc2ncc(C(=O)Nc3c(C)cccc3Cl)s2)cc(N2CCN(CCO)CC2)n1 [dasatinib]
Outline: as §1

[4] = compound: Cn1cc(-c2ccc3nnc(C(F)(F)c4ccc5ncccc5c4)n3n2)cn1
Outline: as §1

tipifarnib = compound: Cn1cncc1[C@@](N)(c1ccc(Cl)cc1)c1ccc2c(c1)c(-c1cccc(Cl)c1)cc(=O)n2C [tipifarnib]
Outline: as §1

mubritinib = compound: FC(F)(F)c1ccc(/C=C/c2nc(COc3ccc(CCCCn4ccnn4)cc3)co2)cc1 [mubritinib]
Outline: as §1

[5] = compound: C[C@H](C1=CC=C(C=C1)C(=O)NC2=C3C=CNC3=NC=C2)N
Outline: as §1

gandotinib = compound: Cc1cc(Nc2cc(CN3CCOCC3)c3nc(C)c(Cc4ccc(Cl)cc4F)n3n2)n[nH]1 [gandotinib]
Outline: as §1

[6] = compound: Cc1cccc(CC(=O)N2CCc3c2ccc(-c2cn(C)c4ncnc(N)c24)c3F)n1
Outline: as §1

nilotinib = compound: Cc1cn(-c2cc(NC(=O)c3ccc(C)c(Nc4nccc(-c5cccnc5)n4)c3)cc(C(F)(F)F)c2)cn1 [nilotinib]
Outline: as §1

[7] = compound: Cc1nc(Nc2n[nH]c3c2CN(C(=O)N[C@H](CN(C)C)c2ccccc2)C3(C)C)c2sccc2n1
Outline: as §1

[8] = compound: Cc1ncc(-c2ccnc(Nc3ccc(S(C)(=O)=O)cc3)n2)n1C(C)C
Outline: as §1

[9] = compound: Cn1cc(-c2ccc3c(c2)CCN3C(=O)Cc2cccc(C(F)(F)F)c2)c2c(N)ncnc21
Outline: as §1

Target	log2 fold change [1]	log2 fold change (crizotinib)	log2 fold change [2]	log2 fold change (duvelisib)	log2 fold change (tozasertib)	log2 fold change [3]	log2 fold change (doramapimod)	log2 fold change (ispinesib)	log2 fold change (bafetinib)	log2 fold change (dasatinib)	log2 fold change [4]	log2 fold change (tipifarnib)	log2 fold change (mubritinib)	log2 fold change [5]	log2 fold change (gandotinib)	log2 fold change [6]	log2 fold change (nilotinib)	log2 fold change [7]	log2 fold change [8]	log2 fold change [9]
ARHGEF12 (UniProt Q9NZN5)	inactive: 0.174	inactive: -0.134	inactive: -0.111	inactive: -0.09	inactive: 0.121	inactive: 0.008	inactive: 0.026	inactive: -0.094	inactive: 0.074	inactive: -0.115	inactive: -0.106	inactive: -0.067	inactive: -0.156							
ARAF (UniProt P10398)	inactive: 0.012	inactive: -0.093	inactive: 0.059			inactive: 0.081	inactive: -0.035	inactive: -0.051	inactive: -0.015	inactive: -0.031	inactive: -0.003	inactive: 0.144	inactive: -0.092	inactive: 0.112	inactive: 0.039	inactive: 0.01	inactive: -0.021	active: -0.236	inactive: 0.009	inactive: 0.007
ARFGEF1 (UniProt Q9Y6D6)	inactive: 0.03	inactive: -0.135	inactive: 0.022			inactive: 0.004	inactive: 0.067	inactive: -0.024	inactive: 0.052	inactive: -0.026	inactive: 0.047	inactive: 0.009	inactive: -0.021	inactive: 0.052	inactive: -0.014	inactive: 0.006	inactive: -0.024	inactive: 0.014	inactive: 0.008	inactive: 0.005
AP2M1 (UniProt C9JTK4)	inactive: 0.105	inactive: 0.048	inactive: 0.158			inactive: -0.03	inactive: 0.032		inactive: -0.174	inactive: 0.029			inactive: 0.08	inactive: 0.08			inactive: -0.02	inactive: 0.212	inactive: -0.161	inactive: -0.17
APOH (UniProt P02749)	inactive: -0.22	inactive: -0.179				inactive: 0.458	inactive: -0.108	inactive: -0.595	active: -1.07	inactive: -0.281	inactive: -0.167	inactive: 0.085	inactive: -0.346	inactive: -0.071	inactive: -0.747	inactive: 0.083	inactive: 0	inactive: 0.031	inactive: 0.392	inactive: 0.145
APH1A (UniProt Q96BI3)	inactive: 0.048	inactive: -0.151				inactive: -0.036	inactive: 0.073		inactive: 0.132	inactive: -0.039		inactive: -0.06	inactive: 0.05	inactive: 0.021	inactive: -0.075	inactive: -0.06	inactive: -0.037	inactive: -0.04	inactive: 0.028	inactive: 0.036
AP2A1 (UniProt O95782)	inactive: -0.011	inactive: -0.127	inactive: -0.006			inactive: 0.02	inactive: 0.039	inactive: 0.081	inactive: 0.052	inactive: 0.045	inactive: -0.066	inactive: -0.051	inactive: -0.011	active: -0.237	inactive: 0.01	inactive: 0.024	inactive: -0.008	inactive: -0.008	inactive: -0.079	inactive: -0.007
ANPEP (UniProt P15144)	inactive: 0.047	inactive: 0.151		inactive: 0.004	inactive: -0.115	inactive: -0.007	inactive: 0.117	inactive: 0.091		inactive: 0.01	inactive: -0.023	inactive: 0.051	inactive: 0.006	inactive: -0.103	inactive: -0.095	inactive: 0.058	inactive: -0.071	inactive: -0.399	inactive: -0.013	inactive: 0.158
AP4B1 (UniProt Q9Y6B7)	inactive: -0.228	inactive: -0.067		inactive: 0.033	inactive: 0.151	inactive: 0.113	inactive: -0.053		inactive: -0.043	inactive: -0.017				inactive: -0.046	inactive: 0.134	inactive: 0.085	inactive: 0.149	inactive: -0.04	inactive: 0.096	inactive: -0.047
ARHGAP1 (UniProt Q07960)	inactive: 0.011	inactive: 0.154	inactive: 0.038			inactive: 0	inactive: -0.039	active: 0.235	inactive: 0.001	inactive: -0.101	inactive: -0.008	inactive: -0.069	inactive: 0.01	inactive: -0.003	inactive: 0.011	inactive: 0.016	inactive: -0.019	inactive: -0.056	inactive: 0.007	inactive: -0.025
ARF4 (UniProt P18085)	inactive: 0.057	inactive: 0.081	inactive: 0.122			inactive: 0.017	inactive: -0.034	active: 0.254	inactive: 0.113	inactive: -0.053	inactive: 0.038	inactive: -0.061	inactive: 0.02	inactive: -0.018	inactive: -0.074	inactive: 0.01	inactive: -0.056	inactive: 0.015	inactive: 0.088	inactive: 0.052
APPL1 (UniProt Q9UKG1)	inactive: -0.019	inactive: -0.015	inactive: -0.078			inactive: -0.003	inactive: 0.032	inactive: -0.098	inactive: -0.013	inactive: -0.003	inactive: -0.001	inactive: -0.051	inactive: -0.029	inactive: 0.034	inactive: 0.123	inactive: -0.092	inactive: -0.046	inactive: 0.161	inactive: 0.002	inactive: 0.03
ANKS1A (UniProt Q92625)	inactive: 0.138	inactive: -0.168	inactive: 0.11		inactive: 0.092		inactive: 0.416	inactive: -0.406	inactive: -0.342		inactive: -0.239			inactive: 0.306						inactive: 0.004
ANKRD46 (UniProt Q86W74)	inactive: 0.009		inactive: 0.047	inactive: 0.038	inactive: 0	inactive: 0.069		inactive: 0.063	inactive: -0.185	inactive: -0.019	inactive: -0.105	inactive: 0.064	inactive: 0.185	inactive: -0.048	inactive: -0.047	inactive: -0.147	inactive: 0.231	inactive: -0.086	inactive: 0.297	inactive: 0.104
APAF1 (UniProt O14727)	inactive: -0.045	inactive: 0.045	inactive: 0.115			inactive: 0.119	inactive: 0.006	inactive: -0.181		inactive: -0.121	inactive: -0.016	inactive: -0.152	inactive: -0.032	inactive: -0.061	inactive: 0.047	inactive: 0.042	inactive: -0.058	inactive: -0.015	inactive: -0.268	inactive: -0.122
APOL2 (UniProt J3KQL8)	inactive: 0.102		inactive: 0	inactive: -0.064	inactive: -0.038	inactive: 0.096			inactive: 0.131	inactive: 0.059		inactive: 0.295	inactive: 0.143	inactive: -0.022	inactive: -0.064	inactive: 0.041	inactive: 0.009	inactive: -0.082	inactive: 0	inactive: 0.016
ANKRD29 (UniProt Q8N6D5)	inactive: 0.125	inactive: 0.019	inactive: 0.042			inactive: 0.017	inactive: 0.097	inactive: -0.055	inactive: 0.063	inactive: -0.002	inactive: 0.133	inactive: -0.223	inactive: 0.083	inactive: -0.043	inactive: 0.185	inactive: -0.027	inactive: -0.09	inactive: -0.057	inactive: 0.053	inactive: 0.22
ARFGAP1 (UniProt Q8N6T3)	inactive: 0.009	inactive: 0.094	inactive: 0.048			inactive: 0.047	inactive: -0.13	inactive: 0.008	inactive: -0.041	inactive: -0.097	inactive: 0.008	inactive: -0.036	inactive: -0.022	inactive: -0.016	inactive: -0.038	inactive: -0.009	inactive: -0.015	inactive: -0.193	inactive: -0.004	inactive: -0.003
ANP32E (UniProt Q9BTT0)	inactive: -0.021	inactive: 0.055	inactive: 0.12			inactive: 0.026	inactive: -0.014	inactive: 0.002	inactive: 0.04	inactive: 0.053	inactive: 0.027	inactive: 0.001	inactive: -0.047	inactive: -0.16	inactive: -0.082	inactive: 0.146	inactive: -0.061	inactive: -0.123	inactive: -0.104	inactive: 0.013

A few values from the entries so far.
log2 fold change [5], ANP32E (UniProt Q9BTT0) reads inactive: -0.16
log2 fold change [8], ANPEP (UniProt P15144) reads inactive: -0.013
